Results from patent publication US6190659A, “Bacterial plasmin binding protein and methods of use thereof” (priority 1996, dated 2001).
At least one compound was matched to its structure with a doubt left.

By UniProt entry, the sequences of proteins in these tests, tags left out. Where a name states a change or a piece, a line headed by the entry shows the natural chain unless it says otherwise.
UniProt Q5XD01: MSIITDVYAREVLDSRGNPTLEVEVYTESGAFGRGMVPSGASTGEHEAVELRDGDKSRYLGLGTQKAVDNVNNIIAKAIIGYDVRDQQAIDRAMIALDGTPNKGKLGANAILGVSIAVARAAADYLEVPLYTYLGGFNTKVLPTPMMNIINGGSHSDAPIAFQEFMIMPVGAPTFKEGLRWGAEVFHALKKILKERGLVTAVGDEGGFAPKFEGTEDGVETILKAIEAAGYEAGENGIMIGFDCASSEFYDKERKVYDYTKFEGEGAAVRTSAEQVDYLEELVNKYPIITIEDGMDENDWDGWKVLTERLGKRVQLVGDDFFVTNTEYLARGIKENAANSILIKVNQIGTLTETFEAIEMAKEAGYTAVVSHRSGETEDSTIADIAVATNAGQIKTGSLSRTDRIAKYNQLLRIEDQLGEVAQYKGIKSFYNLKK

Biological target: T1, streptococcal surface enolase (SEN), 45 kDa plasmin binding protein purified from group A streptococci type M6 strain D471, N-terminal sequence SEQ ID NO: 1 (Streptococcus pyogenes serotype M6, UniProt Q5XD01)
T1 construct: endogenous in cells; host or cells: Group A streptococci type M6 strain D471 (Rockefeller University Culture Collection); native protein purified in-house from the lysin cell wall extract, not recombinant
Assay: Enolase single enzyme assay: conversion of 2-phosphoglycerate to phosphoenolpyruvate, absorbance at 240 nm
Type: biochemical
Conditions: 30° C., 100 mM HEPES pH 7.0, 10 mM MgSO4, 3.2 mM EDTA, 7.7 mM KCl; 5 μg SEN; 2-phosphoglycerate 0.19-7.5 mM
Excerpt: FIG. 7: Michaelis-Menten plot depicting the change in absorbance at 240 nm/minute as a function of the concentration of 2-phosphoglycerate (mM) as catalyzed by the plasmin binding protein. The change in absorbance is due to the conversion of 2-phosphoglycerate to phosphoenolpyruvate. Conditions as described in Example 1.
FIG. 8: Double-reciprocal plot depicting the change in the reciprocal of the absorbance at 240 nm/minute as a function of the reciprocal of the concentration of 2-phosphoglycerate (mM) as catalyzed by the plasmin binding protein. The change in absorbance is due to the conversion of 2-phosphoglycerate to phosphoenolpyruvate. Conditions as described in Example 1.
The molecular weight of the plasmin binding protein for one particular embodiment of the present invention has been determined to be approximately 45 kDa by SDS-PAGE.
(b) For the kinetic studies, the single enzyme assay was used, involving only the conversion of 2-phosphoglycerate to phosphoenolpyruvate by enolase. This simpler reaction avoids possible interactions of the effectors with the other enzymes. The reaction was performed at 30° C. in 100 mM HEPES buffer, pH 7.0, containing 10 mM MgSO4, 3.2 mM EDTA and 7.7 mM KCl and varying concentrations of 2-phosphoglycerate (0.19-7.5 mM). The change in absorbance/min was monitored at 240 nm. […]

Question: For `O=C(O)C(CO)OP(=O)(O)O` (stereo not shown) [2-phosphoglycerate], which Vmax is on record?
Answer: Its Vmax is 270 μmoles phosphoenolpyruvate formed/min-mgSEN.
